For one assay, the target named is septin-3-His (human) (UniProt Q9UH03). The experiment in a line: affinity purification with mass spectrometry; septin-3-His co-expressed with non-tagged septin-5, -6, -7 and -11 in HEK293 cells; septin-3-His enriched by immobilized metal ion affinity chromatography combined with anion exchange chromatography; fraction analysed by ESI-TOF mass spectrometry and SDS-PAGE.

The chains behind the UniProt entries cited, without tags or fusion partners.
UniProt Q9UH03: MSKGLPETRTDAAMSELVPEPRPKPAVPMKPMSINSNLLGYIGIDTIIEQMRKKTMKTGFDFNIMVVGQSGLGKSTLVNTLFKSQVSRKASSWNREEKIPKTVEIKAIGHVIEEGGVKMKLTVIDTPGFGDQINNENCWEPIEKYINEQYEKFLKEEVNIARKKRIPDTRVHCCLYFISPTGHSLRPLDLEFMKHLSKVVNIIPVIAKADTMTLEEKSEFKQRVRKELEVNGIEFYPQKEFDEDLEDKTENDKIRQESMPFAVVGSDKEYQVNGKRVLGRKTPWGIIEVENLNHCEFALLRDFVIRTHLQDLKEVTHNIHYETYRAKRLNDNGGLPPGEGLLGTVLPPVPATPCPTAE
UniProt Q9WU34: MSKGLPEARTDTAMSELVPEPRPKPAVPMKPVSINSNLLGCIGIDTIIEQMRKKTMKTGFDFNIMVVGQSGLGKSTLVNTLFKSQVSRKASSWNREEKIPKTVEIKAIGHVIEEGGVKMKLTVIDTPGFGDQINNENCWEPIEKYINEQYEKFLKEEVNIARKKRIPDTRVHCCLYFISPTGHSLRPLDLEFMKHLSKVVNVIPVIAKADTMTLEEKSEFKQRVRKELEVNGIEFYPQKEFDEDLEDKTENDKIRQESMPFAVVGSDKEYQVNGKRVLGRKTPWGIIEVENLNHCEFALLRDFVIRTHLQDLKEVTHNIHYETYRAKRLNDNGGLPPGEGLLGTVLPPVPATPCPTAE

Assay [1] addresses septin-3 (rat cerebellum) (rat (endogenous in rat cerebellum)) (UniProt Q9WU34). Nature of the assay: affinity purification with mass spectrometry; rat cerebellum lysate (Tris-HCl pH 7.4, 150 mmol/L NaCl, 0.5% deoxycholate, 1% Triton X-100) incubated overnight at 4 °C with anti-septin-3-positive patient sera, captured on Protein G Dynabeads; SDS-PAGE, bands identified by mass spectrometry.

Numbering of substitutions follows the chain as printed. These are yes or no findings as the source states them, for the method shown. In cells and extracts the contact can be indirect. A yes stands for co-enrichment or nearness to the bait. Other partners may have been found. For some of these results: Tags and fused reporters may be left off the sequences shown.

B1: non-tagged septin-11 (protein, UniProt Q9NVA2 1-429)
chain: MAVAVGRPSNEELRNLSLSGHVGFDSLPDQLVNKSTSQGFCFNILCVGETGIGKSTLMDTLFNTKFESDPATHNEPGVRLKARSYELQESNVRLKLTIVDTVGFGDQINKDDSYKPIVEYIDAQFEAYLQEELKIKRSLFNYHDTRIHACLYFIAPTGHSLKSLDLVTMKKLDSKVNIIPIIAKADTIAKNELHKFKSKIMSELVSNGVQIYQFPTDEETVAEINATMSVHLPFAVVGSTEEVKIGNKMAKARQYPWGVVQVENENHCDFVKLREMLIRVNMEDLREQTHTRHYELYRRCKLEEMGFKDTDPDSKPFSLQETYEAKRNEFLGELQKKEEEMRQMFVMRVKEKEAELKEAEKELHEKFDLLKRTHQEEKKKVEDKKKELEEEVNNFQKKKAAAQLLQSQAQQSGAQQTKKDKDKKNASFT
Regarding B1, the binding entry with septin-3-His (human) is “binds”.

B2: non-tagged septin-7 (protein, UniProt Q16181 1-437)
chain: MSVSARSAAAEERSVNSSTMVAQQKNLEGYVGFANLPNQVYRKSVKRGFEFTLMVVGESGLGKSTLINSLFLTDLYSPEYPGPSHRIKKTVQVEQSKVLIKEGGVQLLLTIVDTPGFGDAVDNSNCWQPVIDYIDSKFEDYLNAESRVNRRQMPDNRVQCCLYFIAPSGHGLKPLDIEFMKRLHEKVNIIPLIAKADTLTPEECQQFKKQIMKEIQEHKIKIYEFPETDDEEENKLVKKIKDRLPLAVVGSNTIIEVNGKRVRGRQYPWGVAEVENGEHCDFTILRNMLIRTHMQDLKDVTNNVHYENYRSRKLAAVTYNGVDNNKNKGQLTKSPLAQMEEERREHVAKMKKMEMEMEQVFEMKVKEKVQKLKDSEAELQRRHEQMKKNLEAQHKELEEKRRQFEDEKANWEAQQRILEQQNSSRTLEKNKKKGKIF
B2: the binding result with septin-3-His (human) is listed as “binds”.

B3: septin-11 (rat cerebellum) (protein, UniProt B3GNI6 1-431)
chain: MAVAVGRPSNEELRNLSLSGHVGFDSLPDQLVNKSTSQGFCFNILCVGETGIGKSTLMDTLFNTKFESDPATHNEPGVRLKARSYELQESNVRLKLTIVDTVGFGDQINKDDSYKPIVEYIDAQFEAYLQEELKIKRSLFNYHDTRIHACLYFIAPTGHSLKSLDLVTMKKLDSKVNIIPIIAKADTIAKNELHKFKSKIMSELVSNGVQIYQFPTDEETVAEINATMSVHLPFAVVGSTEEVKIGNKMAKARQYPWGVVQVENENHCDFVKLREMLIRVNMEDLREQTHTRHYELYRRCKLEEMGFKDTDPDSKPFSLQETYEAKRNEFLGELQKKEEEMRQMFVMRVKEKEAELKEAEKELHEKFDLLKRTHQEEKKKVEDKKKELEEEVSNFQKKKAAAQLLQSQAQQSGAQQTKKDKDKKNPWLCTE
As to B3, the binding result in assay [1] is “binds”.

B4: non-tagged septin-6 (protein, UniProt Q14141 1-434)
chain: MAATDIARQVGEGCRTVPLAGHVGFDSLPDQLVNKSVSQGFCFNILCVGETGLGKSTLMDTLFNTKFEGEPATHTQPGVQLQSNTYDLQESNVRLKLTIVSTVGFGDQINKEDSYKPIVEFIDAQFEAYLQEELKIRRVLHTYHDSRIHVCLYFIAPTGHSLKSLDLVTMKKLDSKVNIIPIIAKADAISKSELTKFKIKITSELVSNGVQIYQFPTDDESVAEINGTMNAHLPFAVIGSTEELKIGNKMMRARQYPWGTVQVENEAHCDFVKLREMLIRVNMEDLREQTHTRHYELYRRCKLEEMGFKDTDPDSKPFSLQETYEAKRNEFLGELQKKEEEMRQMFVQRVKEKEAELKEAEKELHEKFDRLKKLHQDEKKKLEDKKKSLDDEVNAFKQRKTAAELLQSQGSQAGGSQTLKRDKEKKNNPWLCTE
On to B4, for which the binding entry with septin-3-His (human) is recorded as “binds”.

B5: septin-7 (rat cerebellum) (protein, UniProt Q9WVC0 1-436)
chain: MSVSARSAAAEERSVNCSTMAQPKNLEGYVGFANLPNQVYRKSVKRGFEFTLMVVGESGLGKSTLINSLFLTDLYSPEYPGPSHRIKKTVQVEQSKVLIKEGGVQLLLTIVDTPGFGDAVDNSNCWQPVIDYIDSKFEDYLNAESRVNRRQMPDNRVQCCLYFIAPSGHGLKPLDIEFMKRLHEKVNIIPLIAKADTLTPEECQQFKKQIMKEIQGHKIKIYEFPETDDEEENKLVKKIKDRLPLAVVGSNTIIEVNGKRVRGRQYPWGVAEVENGEHCDFTILRNMLIRTHMQDLKDVTNNVHYENYRSRKLAAVTYNGVDNNKNKGQLTKSPLAQMEEERREHVAKMKKMEMEMEQVFEMKVKEKVQKLKDSEAELQRRHEQMKKNLEAQHKELEEKRRQFEEEKANWEAQQRILEQQNSSRTLEKNKKKGKIF
Regarding B5, the binding entry in assay [1] is reported as “binds”.

B6: non-tagged septin-5 (protein, UniProt Q99719 1-369)
chain: MSTGLRYKSKLATPEDKQDIDKQYVGFATLPNQVHRKSVKKGFDFTLMVAGESGLGKSTLVHSLFLTDLYKDRKLLSAEERISQTVEILKHTVDIEEKGVKLKLTIVDTPGFGDAVNNTECWKPITDYVDQQFEQYFRDESGLNRKNIQDNRVHCCLYFISPFGHGLRPVDVGFMKALHEKVNIVPLIAKADCLVPSEIRKLKERIREEIDKFGIHVYQFPECDSDEDEDFKQQDRELKESAPFAVIGSNTVVEAKGQRVRGRLYPWGIVEVENQAHCDFVKLRNMLIRTHMHDLKDVTCDVHYENYRAHCIQQMTSKLTQDSRMESPIPILPLPTPDAETEKLIRMKDEELRRMQEMLQRMKQQMQDQ
Turning to B6, in the assay with septin-3-His (human), the binding entry was “binds”.

B7: septin-5 (rat cerebellum) (protein, UniProt Q9JJM9 1-369)
chain: B6 chain with S83N, T119F, E204D, A339S, R361K, Q365R
For the molecule B7, the binding entry in assay [1] was “binds”.

Values taken from publication PMC10061979.
